We go through 50 compounds from PubChem BioAssay AID1794844 (National Center for Advancing Translational Sciences (NCATS), 2023).

Sequences of proteins named here, by UniProt entry; tags and fusion partners are left off. A change or cut given only in a name is not applied to a line headed by its entry.
UniProt C7C422: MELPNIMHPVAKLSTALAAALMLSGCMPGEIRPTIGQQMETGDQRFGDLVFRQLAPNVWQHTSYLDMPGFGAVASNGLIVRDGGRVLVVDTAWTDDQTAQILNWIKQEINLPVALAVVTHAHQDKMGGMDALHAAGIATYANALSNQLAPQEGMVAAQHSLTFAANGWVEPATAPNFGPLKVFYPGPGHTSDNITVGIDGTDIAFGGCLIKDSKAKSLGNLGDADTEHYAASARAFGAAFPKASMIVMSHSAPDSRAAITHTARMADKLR

The structures appear in SMILES notation. Among all 2,800 compounds or so, fewer than 10 were called active. About 7% were inconclusive and are not listed. Calls come from the whole dose curve; as a rule, active = well fitted inhibition curve with a large enough effect; inconclusive = small, poorly fitted or top-dose-only effect; inactive = no such curve, though single readings can be large or run the other way. This is one part of the list.

For the assay, the target named is Metallo-beta-lactamase type 2 (Klebsiella pneumoniae) (UniProt C7C422). In words: qHTS to identify inhibitors of the New Delhi Metallo-beta-lactamase (NDM): Nitrocefin screen against the machine-based learning selections. Note: % of control where 0% means no effect. The note with it: NDM-1 enzyme, nitrocefin hydrolysis, absorbance 485 nm; activity, negative = inhibition: at the top concentration. The procedure, abridged: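 NDM-1 (2 nM final) in 50 mM HEPES pH 7.0, 1 uM Zn2SO4, 0.01% Tween20 was preincubated with compounds for >30 min. Nitrocefin (16.7 uM final) was read at 485 nm after 15 min, and meropenem (50 uM final) at 300 nm after 30 min.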
On the technique in general: Quantitative high-throughput screening tests each substance at several concentrations.
`CCCCN(C)C(=O)Cc1cccn1-c1cccc(Cl)c1`: the “activity, negative = inhibition” value is inactive: -6.5%.

Take `CCCC(C)N1CC2(CCN(C(=O)c3cnn4c3CCCC4)CC2)OC1=O` (stereo not given): the “activity, negative = inhibition” value was inactive: 5.13%.

Turning to `Nc1nc(C2CC(O)C2)cc(N2CCC(O)(Cn3ccnc3)CC2)n1` (stereo not given), the “activity, negative = inhibition” value is inactive: 1.97%.

Consider `O[C@H]1[C@H](NCc2ccc(-c3ccccc3)cc2)[C@H]2CO[C@H](O2)[C@@H]1Oc1ccccc1`, for which the “activity, negative = inhibition” value was inactive: 3.6% [at 57.5 µM].

Regarding `N[C@@H]1CCN(Cc2ccccc2OCc2ccc(Cl)cc2)C[C@H]1O`, the “activity, negative = inhibition” value was inactive: 12.1%.

As to `COC(=O)[C@@H]1Cc2ncn(C(C)C)c2CN1S(=O)(=O)c1ccc(OC)cc1`, the “activity, negative = inhibition” value was inactive: -1.26% [at 57.5 µM].

Consider `O=C(O)CCC(=O)N[C@H]1CCN2C(=O)c3cc(-c4ccc(Cl)cc4)ccc3NC(=O)[C@H]12`, for which the “activity, negative = inhibition” value was inactive: -0.154% [at 57.5 µM].

For the compound `Cc1cc(C)n(C2CCN(c3ncnc4c3c(C)nn4C)C2)n1` (stereo not given), the “activity, negative = inhibition” value is inactive: -26.2%.

In the case of `COc1nc2c(cc1CNC(=O)C1CCOC1)C(=O)N(CCc1ccccn1)C2` (stereo not given), the “activity, negative = inhibition” value was inactive: -6.59%.

As to `O=C1N(C2CCCCC2)C[C@H]2CN(Cc3cccc(Cl)c3)CCN12`, the “activity, negative = inhibition” value is inactive: 9.31% [at 57.5 µM].

As for `Cc1ccc(NC(=O)Cn2c(-c3ccc(F)cc3)nc(C)c(CCO)c2=O)cc1Cl`, the “activity, negative = inhibition” value is inactive: -1.88%.

With `Cc1cc(=O)n(CC(=O)Nc2ccc(N(C)C)cc2)c(-c2ccc(Cl)cc2)n1`, the “activity, negative = inhibition” value is inactive: 2.25%.

For `OC(c1cccc(C(F)(F)F)c1)c1nc(Nc2cccnc2)n[nH]1` (stereo not given), the “activity, negative = inhibition” value is inactive: 3.42% [at 57.5 µM].

On to `Cc1ccc(C(=O)NC2CCN(c3cn[nH]c(=O)c3)CC2)cc1C`, for which the “activity, negative = inhibition” value is inactive: -2.26%.

As to `COc1ccc(-c2cnc3[nH]cc(CC(=O)NC4CCC(O)CC4)c3c2)cc1` (stereo not given), the “activity, negative = inhibition” value was inactive: 32.5% [at 57.5 µM].

On to `O=C(NC[C@H]1OC[C@@H](NCc2ncc[nH]2)[C@@H]1O)C1CCCC1`, for which the “activity, negative = inhibition” value is inactive: -0.682% [at 57.5 µM].

Turning to `OCc1ccc(CN2CC[C@@H](c3ccc4ccccc4c3)[C@H](O)C2)o1`, the “activity, negative = inhibition” value was inactive: -5.95%.

Turning to `c1cc(CN2CCNc3cc(-c4ccsc4)ncc3C2)ccn1`, the “activity, negative = inhibition” value is inactive: 11% [at 57.5 µM].

Take `COC[C@H]1CCCN1C(=O)CC[C@H]1CNC(=O)[C@@H]2[C@@H](CCN2Cc2cccs2)N1C`: the “activity, negative = inhibition” value was inactive: -11.5% [at 57.5 µM].

Consider `COCCC(=O)NCC12CCC=C1N(CC1CC1)C(=O)CC2` (stereo not given), for which the “activity, negative = inhibition” value is inactive: -1.2%.

On to `COc1ccc(NC(=O)Cc2c[nH]c3ncc(-c4ccccc4)cc23)cn1`, for which the “activity, negative = inhibition” value is inactive: 7.71% [at 57.5 µM].

In the case of `O=C(Cc1c[nH]c2ncc(-c3ccsc3)cc12)NCc1cccnc1`, the “activity, negative = inhibition” value was inactive: -5.95% [at 57.5 µM].

Take `O=C(Nc1ccc(F)c(Cl)c1)N1CCCC(Cn2c(C3CC3)nc3cccnc32)C1` (stereo not given): the “activity, negative = inhibition” value was inactive: 4.6%.

On to `COc1ccc(C(=O)N2CC[C@@H](CC(=O)O)[C@@H](CCN3CCN(c4ccccn4)CC3)C2)cc1`, for which the “activity, negative = inhibition” value was inactive: -10.6%.

`NCCn1cc(C(=O)N2CCCC(c3[nH]ncc3Cc3ccccc3)C2)nn1` (stereo not given): the “activity, negative = inhibition” value is inactive: -26%.

`O=C1Nc2cc(Cl)ccc2C(=O)N2CCN(C(=O)c3ccccc3)C[C@H]12`: the “activity, negative = inhibition” value is inactive: -14.3% [at 57.5 µM].

Regarding `COc1cccc(Nc2cc3[nH]ccc3c(C(=O)NCc3c(C)cc(C)[nH]c3=O)n2)c1`, the “activity, negative = inhibition” value was inactive: -7.58% [at 57.5 µM].

With `CSc1ncccc1C(=O)NC1CCCN(CCCc2ccccc2)C1` (stereo not given), the “activity, negative = inhibition” value was inactive: 9.24%.

As to `COCC(=O)Nc1ccc([C@@H](O)[C@H]2COCC(=O)N2Cc2ccccc2F)cc1`, the “activity, negative = inhibition” value was inactive: -0.524% [at 57.5 µM].

In the case of `Cc1nnnn1Cc1ccc(C(=O)N2CCc3nc(-c4cn[nH]c4)[nH]c3C2)cc1`, the “activity, negative = inhibition” value is inactive: -0.17%.

Regarding `NC(=O)c1cccc(-c2n[nH]c3c2CC(=O)N(Cc2ccccc2)C3)c1`, the “activity, negative = inhibition” value was inactive: -2.75% [at 57.5 µM].

On to `O=C(NCc1nnc2ccc(-c3ccccc3)nn12)c1cc(F)ccc1Cl`, for which the “activity, negative = inhibition” value was inactive: -9.4%.

On to `CCCNC(=O)N1CC(c2noc(C3CCCN3CC3CC3)n2)C1` (stereo not given), for which the “activity, negative = inhibition” value is inactive: -6.34%.

Consider `CCOc1cc(C(=O)N2CCN(c3cc(-c4ccc(Cl)cc4)[nH]n3)CC2)cc(OCC)c1OCC`, for which the “activity, negative = inhibition” value is inactive: 0.47%.

As for `Cc1nc(-c2c3n(c(=O)n(Cc4cccc(Cl)c4)c2=O)CCCCC3)no1`, the “activity, negative = inhibition” value is inactive: 0.916%.

For `CC(C)CCCC(=O)N1C[C@@H](C(=O)O)C[C@@H](C(=O)NCc2ccncc2)C1`, the “activity, negative = inhibition” value was inactive: 27.5%.

For the compound `Cc1ccc(-c2nnc([C@H]3CCN(Cc4ccc(CO)o4)C3)o2)cc1`, the “activity, negative = inhibition” value was inactive: -0.283% [at 57.5 µM].

As for `C[C@@H](NC(=O)C1CC1)c1onc(-c2ccc(F)cc2)c1C(=O)O`, the “activity, negative = inhibition” value was inactive: 3.4% [at 57.5 µM].

With `O=C(NC1CCC(O)CC1)C1CCCN(c2nc(-c3ccccc3)nc3c2CCC3)C1` (stereo not given), the “activity, negative = inhibition” value was inactive: 3.71%.

Take `Cc1ccncc1C(=O)N1CCC2(CC1)CC(c1ccccc1)C(=O)N2C` (stereo not given): the “activity, negative = inhibition” value was inactive: 4.16%.

With `O=C(Cc1c[nH]c2ncc(-c3cccnc3)cc12)NC1CCOCC1`, the “activity, negative = inhibition” value was inactive: -14.5% [at 57.5 µM].

Turning to `O=c1ncn(Cc2ccccc2)c2ccc(-c3ccc(O)c(F)c3)nc12`, the “activity, negative = inhibition” value was inactive: 4.77% [at 57.5 µM].

On to `Cn1cc(C(NC(=O)c2ccc3c(c2)ncn3CCO)C2CC(O)C2)cn1` (stereo not given), for which the “activity, negative = inhibition” value is inactive: -11.3%.

On to `C[C@H](O)c1c(-c2ccc(Cl)cc2)noc1C(=O)NC1CC1`, for which the “activity, negative = inhibition” value is inactive: 3.68% [at 57.5 µM].

Turning to `CC(C)(O)CCc1cccc(C(=O)NCCNc2cccnc2)c1`, the “activity, negative = inhibition” value was inactive: -9.84%.

With `O=C(Nc1cccc(C(F)(F)F)c1)N[C@@H]1C[C@H](CO)[C@@H](O)[C@H]1O`, the “activity, negative = inhibition” value was inactive: -6.93% [at 57.5 µM].

Take `CC(C)CCNC(=O)c1cc(-c2ccncc2)cn1C`: the “activity, negative = inhibition” value is inactive: 2.59%.

Consider `CCc1ncc(C(=O)Nc2nn(CC(F)(F)F)c3cc(OC(C)C)ccc23)cn1`, for which the “activity, negative = inhibition” value is inactive: -9.36%.

Turning to `Cc1cc(C(=O)N[C@H](C)c2onc(C)c2C(=O)O)c(C)o1`, the “activity, negative = inhibition” value was inactive: 2.27% [at 57.5 µM].

For the compound `C[S+](=O)([O-])CCn1ncc2cc(OCc3cccc(-c4ccccc4O)c3)ccc21`, the “activity, negative = inhibition” value was inactive: -4.12% [at 57.5 µM].
